# According to publication doi:10.1101/2023.04.27.538571:
# Results are given in words; binding and its absence hold for the method and conditions named. In cells and extracts the contact can be indirect. Some results given as binding are weak or reduced against the parent protein; the word gives no strength. Where a sequence is shown, tags or fusion partners need not be part of it.
# T1: SNX1-nYFP (SORTING NEXIN 1) (Arabidopsis thaliana) (UniProt Q9FG38)
# T1 sequence: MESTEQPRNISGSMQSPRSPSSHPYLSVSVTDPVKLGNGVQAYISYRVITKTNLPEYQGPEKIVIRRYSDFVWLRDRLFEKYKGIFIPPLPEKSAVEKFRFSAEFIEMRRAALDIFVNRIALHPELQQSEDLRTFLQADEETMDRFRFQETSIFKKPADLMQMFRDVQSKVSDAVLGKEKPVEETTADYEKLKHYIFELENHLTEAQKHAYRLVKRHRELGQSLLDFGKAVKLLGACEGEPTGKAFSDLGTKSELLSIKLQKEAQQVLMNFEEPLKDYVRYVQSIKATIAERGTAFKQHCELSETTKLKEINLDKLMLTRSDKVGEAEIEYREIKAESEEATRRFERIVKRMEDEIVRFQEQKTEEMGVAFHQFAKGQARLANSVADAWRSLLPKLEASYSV
# T2: nYFP-IRT1vr (Arabidopsis thaliana) (UniProt Q38856)
# T2 sequence: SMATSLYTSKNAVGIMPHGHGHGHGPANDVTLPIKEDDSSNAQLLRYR
# T3: PATL2-nYFP (PATELLIN 2) (Arabidopsis thaliana) (UniProt Q56ZI2)
# T3 sequence: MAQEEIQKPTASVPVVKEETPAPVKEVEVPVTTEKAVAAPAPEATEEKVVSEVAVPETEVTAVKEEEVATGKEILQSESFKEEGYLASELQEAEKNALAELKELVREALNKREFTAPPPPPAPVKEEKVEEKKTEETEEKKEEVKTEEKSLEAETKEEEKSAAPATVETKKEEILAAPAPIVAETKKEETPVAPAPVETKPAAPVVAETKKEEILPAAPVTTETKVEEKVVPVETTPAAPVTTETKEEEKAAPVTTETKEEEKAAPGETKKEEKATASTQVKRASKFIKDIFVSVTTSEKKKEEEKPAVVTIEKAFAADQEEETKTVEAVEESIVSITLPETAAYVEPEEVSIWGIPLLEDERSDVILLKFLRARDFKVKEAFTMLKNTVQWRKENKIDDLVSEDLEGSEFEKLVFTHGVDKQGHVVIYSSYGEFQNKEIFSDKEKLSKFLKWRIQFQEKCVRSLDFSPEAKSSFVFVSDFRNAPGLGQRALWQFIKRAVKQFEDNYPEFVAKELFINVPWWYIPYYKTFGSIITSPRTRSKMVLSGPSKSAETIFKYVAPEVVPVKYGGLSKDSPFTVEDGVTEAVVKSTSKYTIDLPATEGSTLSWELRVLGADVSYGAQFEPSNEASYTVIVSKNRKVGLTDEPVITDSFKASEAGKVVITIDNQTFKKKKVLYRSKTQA
# T4: IRT1vr-mCherry (Arabidopsis thaliana) (UniProt Q38856)
# T4 sequence: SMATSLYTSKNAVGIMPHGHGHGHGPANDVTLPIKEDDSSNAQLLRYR
# Experiments:
# [1] = biological target: T1, SNX1-nYFP (SORTING NEXIN 1) (Arabidopsis thaliana); assay: split reporter
# [2] = biological target: T2, nYFP-IRT1vr (Arabidopsis thaliana); assay: split reporter
# [3] = biological target: T3, PATL2-nYFP (PATELLIN 2) (Arabidopsis thaliana); assay: split reporter
# [4] = biological target: T4, IRT1vr-mCherry (Arabidopsis thaliana); assay: FRET or BRET
binding [1],binding [2],binding [3],binding [4],Binder
binds,binds,no binding,–,"cYFP-TTN5^Q70L (protein, UniProt Q9ZPX1 1-185) MGLLSIIRKIKKKEKEMRILMVGLDNSGKTTIVLKINGEDTSVISPTLGFNIKTIIYQKYTLNIWDVGGLKTIRSYWRNYFEQTDGLVWVVDSSDLRRLDDCKMELDNLLKEERLAGSSLLILANKQDIQGALTPDEIGKVLNLESMDKSRHWKIVGCSAYTGEGLLEGFDWLVQDIASRIYMLD"
no binding,binds,no binding,–,"cYFP-TTN5^T30N (protein, UniProt Q9ZPX1 1-185) MGLLSIIRKIKKKEKEMRILMVGLDNSGKNTIVLKINGEDTSVISPTLGFNIKTIIYQKYTLNIWDVGGQKTIRSYWRNYFEQTDGLVWVVDSSDLRRLDDCKMELDNLLKEERLAGSSLLILANKQDIQGALTPDEIGKVLNLESMDKSRHWKIVGCSAYTGEGLLEGFDWLVQDIASRIYMLD"

# Further lines, the binder ahead of its results:
Binder,binding [1],binding [2],binding [3],binding [4]
"GFP-TTN5^T30N (protein, UniProt Q9ZPX1 1-185) MGLLSIIRKIKKKEKEMRILMVGLDNSGKNTIVLKINGEDTSVISPTLGFNIKTIIYQKYTLNIWDVGGQKTIRSYWRNYFEQTDGLVWVVDSSDLRRLDDCKMELDNLLKEERLAGSSLLILANKQDIQGALTPDEIGKVLNLESMDKSRHWKIVGCSAYTGEGLLEGFDWLVQDIASRIYMLD",–,–,–,binds
"GFP-TTN5^Q70L (protein, UniProt Q9ZPX1 1-185) MGLLSIIRKIKKKEKEMRILMVGLDNSGKTTIVLKINGEDTSVISPTLGFNIKTIIYQKYTLNIWDVGGLKTIRSYWRNYFEQTDGLVWVVDSSDLRRLDDCKMELDNLLKEERLAGSSLLILANKQDIQGALTPDEIGKVLNLESMDKSRHWKIVGCSAYTGEGLLEGFDWLVQDIASRIYMLD",–,–,–,binds
